Test results taken from US8367086B1, “Process and product for inhibiting or preventing bacterial infections” (S.S. Steiner, Inc., priority 2004, dated 2013).
For at least one compound, name, drawing or mass did not settle the structure.

Test system: Staphlococcus saprophyticus
Assay: paper disc diffusion susceptibility (Kirby-Bauer) method
Assay type: cell-based
Conditions: Experiment 1; 0.2 μg/ml β-resin versus antibiotic alone
Description: The first test method to be applied was the paper disc diffusion susceptibility method. In this method a filter paper disc impregnated with a chemical is placed on agar, and the chemical will diffuse from the disc into the agar. If an organism is placed on the agar, it will not grow in the area around the disc if it is susceptible to the chemical. This area of no growth around the disc is known as the zone of inhibition. This disc diffusion method for antibiotic susceptibility is known as the Kirby-Bauer method. In testing the effectiveness of various antibiotics, all factors, e.g., the agar utilized, the depth of the agar, the amount of organism used, and incubation conditions, are maintained constant for the various organisms and antibiotics being tested. […]
In performing the disc diffusion method tests, a bacterial suspension having an inoculum density of approximately 1×10^8 CFU/ml (colony forming units) was added to 10 ml trypticase soy agar at 46° C. […] In this series of tests the ability of each antibiotic per se to control the growth of the bacteria was measured. […]
The size of the inhibition zones was measured to the nearest mm.
The concentration of β-acid and xanthohumol is set forth in μg/ml. The zone of inhibition was measured in centimeters. […]

**Q.** With CN(C)[C@@H]1C(O)=C(C(N)=O)C(=O)[C@@]2(O)C(O)=C3C(=O)c4c(O)cccc4[C@@](C)(O)[C@H]3C[C@@H]12 [tetracycline] as the molecule, how does the “change of zone of inhibition when lupulone was added” value read?
**A.** decline
